Taken from: PubChem BioAssay AID1259254 (NCATS, 2017)
Shown is one part, drawn at random, of about 59,000 reagents tested. About 1,550 of them (2.6%) were called active. 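G2 share is only a proxy for re-replication; each gene was hit by three separate siRNAs, and active genes were retested.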 Reagents against one gene are numbered here. Not all columns of the deposit are shown. No sequences are given here. Not stated in the record: the amount of reagent.

Assay: 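Finding genes that stop cells copying their DNA twice in one cycle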 (primary screen)
Cell system: human HCT116 colorectal cancer cells
Reagents: single siRNA against human genes
Timing: 3 days
Read-out: 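Imaged Hoechst DNA stain sorts each cell into a cycle phase by DNA amount; per plate, G2 fraction set to 0% for non-targeting and 100% for GMNN siRNA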
Reading the numbers: G2 robust z-score: higher = more G2 cells, more excess DNA replication
Hit rule: 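An siRNA counts as active if its G2 robust z-score lies at least 5 MADs above the screen median; here such calls match roughly 38% of GMNN control or more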

HNRNPL (GeneID 3191) #1 showed G2 robust z-score 0.543; inactive. After knock-down of HNRNPL (GeneID 3191) #2, the screen gave G2 robust z-score -0.318; inactive. For HNRNPL (GeneID 3191) #3 the deposit lists G2 robust z-score 7.42; active. UNC50 (GeneID 25972) #1 scored G2 robust z-score 4; inactive. After knock-down of UNC50 (GeneID 25972) #2, the record shows G2 robust z-score -0.14; inactive. After knock-down of UNC50 (GeneID 25972) #3, the record shows G2 robust z-score 0.0609; inactive.

Against GZF1 (GeneID 64412) #1, the values are G2 robust z-score 0.0817; inactive. Silencing of GZF1 (GeneID 64412) #2 came out at: G2 robust z-score -0.586; inactive. Silencing of GZF1 (GeneID 64412) #3 gave: G2 robust z-score 5.11; active. Depletion of ANKRD17 (GeneID 26057) #1 came out at: G2 robust z-score 5.11; active. Depletion of ANKRD17 (GeneID 26057) #2 came out at: G2 robust z-score 0.0998; inactive. ANKRD17 (GeneID 26057) #3 gave G2 robust z-score -1.13; inactive.

Reprinted from the entries so far for reference:
UNC50 (GeneID 25972) #1: G2 robust z-score = 4; outcome = inactive
UNC50 (GeneID 25972) #2: G2 robust z-score = -0.14; outcome = inactive
UNC50 (GeneID 25972) #3: G2 robust z-score = 0.0609; outcome = inactive
GZF1 (GeneID 64412) #1: G2 robust z-score = 0.0817; outcome = inactive
GZF1 (GeneID 64412) #2: G2 robust z-score = -0.586; outcome = inactive

More reagents follow.
Knock-down of LOC400576 (retired record) (GeneID 400576) #1 resulted in: G2 robust z-score -0.165; inactive. Depletion of LOC400576 (retired record) (GeneID 400576) #2 came out at: G2 robust z-score 3.24; inactive. LOC400576 (retired record) (GeneID 400576) #3 scored G2 robust z-score 0.0819; inactive. SRGAP2 (GeneID 23380) #1 showed G2 robust z-score 0.787; inactive. Knock-down of SRGAP2 (GeneID 23380) #2 gave: G2 robust z-score -0.608; inactive. SRGAP2 (GeneID 23380) #3 gave G2 robust z-score -0.73; inactive.

Against SRGAP2 (GeneID 23380) #4, the values are G2 robust z-score 0.144; inactive. Against SRGAP2 (GeneID 23380) #5, the values are G2 robust z-score 1.12; inactive. With knock-down of SRGAP2 (GeneID 23380) #6, the record shows G2 robust z-score -0.412; inactive. WDR38 (GeneID 401551) #1 showed G2 robust z-score -0.592; inactive. Silencing of WDR38 (GeneID 401551) #2 resulted in: G2 robust z-score -0.2; inactive. With knock-down of WDR38 (GeneID 401551) #3 the results were G2 robust z-score 1.33; inactive.

For OLA1 (GeneID 29789) #1, the values are G2 robust z-score -0.871; inactive. Knock-down of OLA1 (GeneID 29789) #2 came out at: G2 robust z-score -0.979; inactive. After knock-down of OLA1 (GeneID 29789) #3, the screen gave G2 robust z-score -0.636; inactive. For RBM46 (GeneID 166863) #1, the entry reads G2 robust z-score -0.454; inactive. RBM46 (GeneID 166863) #2 showed G2 robust z-score 2.01; inactive. RBM46 (GeneID 166863) #3 scored G2 robust z-score -0.476; inactive.
